Source: the supplement of paper PMC12067093, “Discovery and optimisation of a covalent ligand for TRIM25 and its application to targeted protein ubiquitination” (Chemical Science, 2025)
The other results are listed elsewhere or left out.

Protein sequences, listed by entry. Tags and fused reporters are not part of them. Lines headed by an entry give the natural chain unless they say otherwise; changes in a name come on top.
UniProt Q9NWS8: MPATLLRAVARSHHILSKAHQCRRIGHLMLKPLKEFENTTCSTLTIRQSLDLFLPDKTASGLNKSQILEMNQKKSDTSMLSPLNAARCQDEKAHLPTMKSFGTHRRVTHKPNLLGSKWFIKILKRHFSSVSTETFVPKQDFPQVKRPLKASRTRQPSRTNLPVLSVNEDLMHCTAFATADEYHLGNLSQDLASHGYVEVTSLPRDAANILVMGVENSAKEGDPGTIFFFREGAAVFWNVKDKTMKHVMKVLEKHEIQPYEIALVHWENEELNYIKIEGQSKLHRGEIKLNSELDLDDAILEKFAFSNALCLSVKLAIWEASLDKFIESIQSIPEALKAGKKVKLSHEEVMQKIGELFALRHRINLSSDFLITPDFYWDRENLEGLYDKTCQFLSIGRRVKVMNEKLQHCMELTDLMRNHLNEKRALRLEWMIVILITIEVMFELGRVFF
UniProt O14730: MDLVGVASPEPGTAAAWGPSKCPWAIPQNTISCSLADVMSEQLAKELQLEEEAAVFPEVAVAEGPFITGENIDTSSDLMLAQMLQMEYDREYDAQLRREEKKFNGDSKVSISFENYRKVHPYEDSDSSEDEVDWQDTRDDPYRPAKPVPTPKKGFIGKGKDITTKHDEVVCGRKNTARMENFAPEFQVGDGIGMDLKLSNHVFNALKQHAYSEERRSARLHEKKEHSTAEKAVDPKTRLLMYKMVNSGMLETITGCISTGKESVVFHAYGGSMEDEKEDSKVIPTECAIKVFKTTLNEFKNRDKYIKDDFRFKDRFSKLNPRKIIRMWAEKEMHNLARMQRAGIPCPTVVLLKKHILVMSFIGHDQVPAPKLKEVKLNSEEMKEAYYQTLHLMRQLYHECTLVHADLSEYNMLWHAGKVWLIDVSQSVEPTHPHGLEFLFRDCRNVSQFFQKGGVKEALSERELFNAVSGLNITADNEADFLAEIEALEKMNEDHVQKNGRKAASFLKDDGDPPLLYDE
UniProt Q9H6W3: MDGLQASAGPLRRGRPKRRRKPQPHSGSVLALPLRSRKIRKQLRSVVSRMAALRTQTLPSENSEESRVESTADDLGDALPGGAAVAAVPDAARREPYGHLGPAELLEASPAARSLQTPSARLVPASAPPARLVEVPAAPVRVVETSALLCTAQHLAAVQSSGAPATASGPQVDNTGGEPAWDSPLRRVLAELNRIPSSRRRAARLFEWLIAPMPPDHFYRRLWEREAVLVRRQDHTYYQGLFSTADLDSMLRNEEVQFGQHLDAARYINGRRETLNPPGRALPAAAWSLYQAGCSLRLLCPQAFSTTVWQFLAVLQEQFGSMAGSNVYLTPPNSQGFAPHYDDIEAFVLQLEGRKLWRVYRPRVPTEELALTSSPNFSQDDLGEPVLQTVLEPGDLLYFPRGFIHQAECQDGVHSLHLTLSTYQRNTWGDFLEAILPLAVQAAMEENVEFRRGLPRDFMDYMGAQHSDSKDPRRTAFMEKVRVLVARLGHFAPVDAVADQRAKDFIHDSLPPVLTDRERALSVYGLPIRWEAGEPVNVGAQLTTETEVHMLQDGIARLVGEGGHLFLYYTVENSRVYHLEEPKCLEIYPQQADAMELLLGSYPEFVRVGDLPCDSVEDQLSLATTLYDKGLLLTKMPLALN
UniProt Q6PCD5: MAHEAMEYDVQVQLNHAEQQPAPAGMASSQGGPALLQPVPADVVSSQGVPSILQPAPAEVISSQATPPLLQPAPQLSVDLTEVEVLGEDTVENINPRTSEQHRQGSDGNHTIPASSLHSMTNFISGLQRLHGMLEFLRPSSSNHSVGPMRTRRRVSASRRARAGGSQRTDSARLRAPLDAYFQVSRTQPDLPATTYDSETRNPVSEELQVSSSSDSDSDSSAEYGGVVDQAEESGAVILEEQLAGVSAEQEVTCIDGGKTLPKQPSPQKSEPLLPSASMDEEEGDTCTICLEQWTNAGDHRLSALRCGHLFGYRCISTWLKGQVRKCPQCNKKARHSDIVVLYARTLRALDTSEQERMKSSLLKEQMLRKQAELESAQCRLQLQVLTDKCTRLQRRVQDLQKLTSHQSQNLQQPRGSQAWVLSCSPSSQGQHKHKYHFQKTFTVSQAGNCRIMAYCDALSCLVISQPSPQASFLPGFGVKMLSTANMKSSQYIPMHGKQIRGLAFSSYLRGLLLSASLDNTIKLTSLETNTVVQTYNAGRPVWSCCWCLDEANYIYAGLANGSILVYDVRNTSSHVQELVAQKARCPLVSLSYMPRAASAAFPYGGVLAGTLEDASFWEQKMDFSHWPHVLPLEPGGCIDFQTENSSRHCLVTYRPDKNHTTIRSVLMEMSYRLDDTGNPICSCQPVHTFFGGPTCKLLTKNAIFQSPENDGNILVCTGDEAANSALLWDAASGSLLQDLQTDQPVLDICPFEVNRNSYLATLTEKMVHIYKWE
UniProt P07949, whole entry, looked up: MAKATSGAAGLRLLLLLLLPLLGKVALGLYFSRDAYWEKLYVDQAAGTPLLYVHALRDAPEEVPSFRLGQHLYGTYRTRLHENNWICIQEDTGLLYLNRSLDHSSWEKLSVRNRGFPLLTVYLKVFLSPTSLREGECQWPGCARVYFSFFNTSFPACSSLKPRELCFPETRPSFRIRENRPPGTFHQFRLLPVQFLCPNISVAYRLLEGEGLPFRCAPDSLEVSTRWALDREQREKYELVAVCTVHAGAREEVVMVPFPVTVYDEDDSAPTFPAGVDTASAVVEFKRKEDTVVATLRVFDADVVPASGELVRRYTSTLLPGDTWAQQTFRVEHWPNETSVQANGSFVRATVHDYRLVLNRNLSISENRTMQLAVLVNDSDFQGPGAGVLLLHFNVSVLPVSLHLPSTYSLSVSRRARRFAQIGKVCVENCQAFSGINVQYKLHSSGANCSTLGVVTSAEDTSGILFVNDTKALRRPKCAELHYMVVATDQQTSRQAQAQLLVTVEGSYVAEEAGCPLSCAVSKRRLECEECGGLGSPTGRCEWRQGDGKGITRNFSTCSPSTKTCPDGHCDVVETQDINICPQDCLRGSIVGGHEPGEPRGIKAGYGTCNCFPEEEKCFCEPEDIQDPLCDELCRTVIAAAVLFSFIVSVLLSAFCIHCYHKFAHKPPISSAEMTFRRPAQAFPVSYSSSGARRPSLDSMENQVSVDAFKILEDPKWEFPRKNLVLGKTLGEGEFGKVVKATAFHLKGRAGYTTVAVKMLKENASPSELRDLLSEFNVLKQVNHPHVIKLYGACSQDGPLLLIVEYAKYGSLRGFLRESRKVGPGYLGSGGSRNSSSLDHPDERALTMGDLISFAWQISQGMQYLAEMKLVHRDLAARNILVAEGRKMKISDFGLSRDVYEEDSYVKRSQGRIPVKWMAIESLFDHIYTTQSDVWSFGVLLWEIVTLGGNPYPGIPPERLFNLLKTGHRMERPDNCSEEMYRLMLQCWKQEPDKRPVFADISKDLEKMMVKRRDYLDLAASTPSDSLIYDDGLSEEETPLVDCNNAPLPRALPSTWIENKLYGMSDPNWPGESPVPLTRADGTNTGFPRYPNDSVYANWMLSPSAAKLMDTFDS
UniProt Q5UIP0: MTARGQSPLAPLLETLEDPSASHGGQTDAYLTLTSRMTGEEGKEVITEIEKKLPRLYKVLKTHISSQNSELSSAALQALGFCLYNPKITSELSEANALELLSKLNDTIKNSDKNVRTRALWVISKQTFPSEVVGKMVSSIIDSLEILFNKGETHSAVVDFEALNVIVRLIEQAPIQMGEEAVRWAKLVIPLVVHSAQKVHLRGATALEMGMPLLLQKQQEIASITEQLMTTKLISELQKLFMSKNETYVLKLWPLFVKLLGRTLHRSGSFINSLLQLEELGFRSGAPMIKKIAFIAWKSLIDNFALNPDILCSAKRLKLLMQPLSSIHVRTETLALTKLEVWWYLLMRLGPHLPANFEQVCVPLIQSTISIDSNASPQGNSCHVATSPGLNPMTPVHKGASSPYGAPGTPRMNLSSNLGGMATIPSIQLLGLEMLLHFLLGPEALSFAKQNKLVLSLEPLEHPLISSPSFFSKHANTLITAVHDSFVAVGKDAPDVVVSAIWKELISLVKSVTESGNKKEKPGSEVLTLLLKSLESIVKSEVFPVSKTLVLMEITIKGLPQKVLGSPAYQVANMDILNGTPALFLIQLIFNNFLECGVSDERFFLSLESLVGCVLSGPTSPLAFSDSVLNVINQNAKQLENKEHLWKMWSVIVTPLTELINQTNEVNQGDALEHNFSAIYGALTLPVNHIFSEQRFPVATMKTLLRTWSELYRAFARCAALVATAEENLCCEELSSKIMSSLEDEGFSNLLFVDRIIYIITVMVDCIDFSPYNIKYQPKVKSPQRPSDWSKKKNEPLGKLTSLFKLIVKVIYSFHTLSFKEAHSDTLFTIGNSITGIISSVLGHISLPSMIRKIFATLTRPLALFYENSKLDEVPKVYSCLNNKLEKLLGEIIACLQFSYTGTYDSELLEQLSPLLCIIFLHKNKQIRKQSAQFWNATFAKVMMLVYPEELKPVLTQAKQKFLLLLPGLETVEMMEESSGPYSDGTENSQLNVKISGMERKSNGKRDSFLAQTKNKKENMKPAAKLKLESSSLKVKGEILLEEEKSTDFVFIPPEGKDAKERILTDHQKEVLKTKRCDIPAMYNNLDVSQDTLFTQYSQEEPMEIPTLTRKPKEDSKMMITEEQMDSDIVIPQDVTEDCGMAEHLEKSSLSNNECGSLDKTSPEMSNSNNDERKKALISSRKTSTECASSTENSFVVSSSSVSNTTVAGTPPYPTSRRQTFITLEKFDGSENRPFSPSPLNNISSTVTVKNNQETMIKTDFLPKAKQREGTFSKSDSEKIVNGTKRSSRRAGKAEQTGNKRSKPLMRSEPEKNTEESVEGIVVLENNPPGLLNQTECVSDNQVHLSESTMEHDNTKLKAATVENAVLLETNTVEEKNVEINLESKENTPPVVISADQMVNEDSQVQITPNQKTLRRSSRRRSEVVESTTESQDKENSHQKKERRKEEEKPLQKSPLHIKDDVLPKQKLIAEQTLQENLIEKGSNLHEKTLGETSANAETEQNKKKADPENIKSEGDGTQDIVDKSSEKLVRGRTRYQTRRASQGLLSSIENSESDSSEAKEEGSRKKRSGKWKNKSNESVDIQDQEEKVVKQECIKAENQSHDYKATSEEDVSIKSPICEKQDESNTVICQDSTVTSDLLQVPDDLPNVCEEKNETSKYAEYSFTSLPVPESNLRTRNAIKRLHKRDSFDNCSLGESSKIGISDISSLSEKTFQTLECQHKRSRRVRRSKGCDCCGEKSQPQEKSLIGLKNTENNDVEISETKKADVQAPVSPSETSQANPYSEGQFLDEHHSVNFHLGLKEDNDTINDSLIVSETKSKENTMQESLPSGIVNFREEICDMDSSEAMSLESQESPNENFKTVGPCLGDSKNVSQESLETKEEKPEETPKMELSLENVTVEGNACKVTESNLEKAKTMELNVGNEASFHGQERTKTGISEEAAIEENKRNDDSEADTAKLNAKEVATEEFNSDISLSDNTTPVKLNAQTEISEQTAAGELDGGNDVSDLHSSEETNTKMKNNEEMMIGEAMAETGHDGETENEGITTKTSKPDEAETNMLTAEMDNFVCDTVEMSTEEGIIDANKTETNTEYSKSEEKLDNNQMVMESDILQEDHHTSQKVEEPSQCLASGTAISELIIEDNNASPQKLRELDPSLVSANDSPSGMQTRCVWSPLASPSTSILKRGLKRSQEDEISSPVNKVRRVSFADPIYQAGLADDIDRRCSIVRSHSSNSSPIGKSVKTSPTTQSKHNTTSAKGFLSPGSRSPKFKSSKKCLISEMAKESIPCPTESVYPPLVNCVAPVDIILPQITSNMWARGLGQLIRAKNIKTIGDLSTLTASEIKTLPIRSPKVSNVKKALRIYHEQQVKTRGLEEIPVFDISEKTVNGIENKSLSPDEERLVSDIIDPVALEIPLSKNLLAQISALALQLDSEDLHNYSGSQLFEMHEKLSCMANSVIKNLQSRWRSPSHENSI
UniProt Q15493: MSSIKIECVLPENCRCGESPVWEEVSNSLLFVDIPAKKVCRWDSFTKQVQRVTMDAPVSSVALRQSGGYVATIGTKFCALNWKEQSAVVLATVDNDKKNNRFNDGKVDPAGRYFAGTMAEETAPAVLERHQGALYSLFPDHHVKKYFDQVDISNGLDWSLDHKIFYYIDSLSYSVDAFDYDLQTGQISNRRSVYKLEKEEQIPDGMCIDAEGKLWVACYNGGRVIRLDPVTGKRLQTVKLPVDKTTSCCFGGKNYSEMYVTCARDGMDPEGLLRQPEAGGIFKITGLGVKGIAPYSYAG

Compound: CC1Cc2ccccc2N1C(=O)C1CCCN(C1)C(=O)CCl (mixture of isomers) [TRIM25 ligand 11 (diastereomer mixture)]
Test: probe-labelled cysteine peptide fold change vs DMSO (competition) (log2 fold change); higher = less target engagement (more negative = stronger competition)
Conditions: THP-1, incubation time: 4 h
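Further: competitive chemoproteomic profiling in live THP-1 cells with an iodoacetamide desthiobiotin (IA-DTB) probe, comparing probe-labelled peptide intensities in compound-treated cells against DMSO-treated controls.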

| Target | probe-labelled cysteine peptide fold change (10 µM) | probe-labelled cysteine peptide fold change (50 µM) |
| --- | --- | --- |
| REPIN1_Q9BWE0_433+436_VHSGERPFACEECGR (UniProt Q9BWE0) | 0.371 | 0.0948 |
| RMND1_Q9NWS8_310_FAFSNALCLSVK (UniProt Q9NWS8) | -0.239 | 0.267 |
| RIOK3_O14730_287_VIPTECAIK (UniProt O14730) | -0.0379 | -0.0226 |
| RIOX1_Q9H6W3_409_GFIHQAECQDGVHSLHLTLSTYQR (UniProt Q9H6W3) | 0.122 | -0.033 |
| RFWD3_Q6PCD5_638_MDFSHWPHVLPLEPGGCIDFQTENSSR (UniProt Q6PCD5) | -0.386 | -0.214 |
| RFTN1_Q14699_551_ALVGICTGHSNPGEDAR (UniProt Q14699) | -0.0992 | -0.189 |
| RET_P07949_585_TCPDGHCDVVETQDINICPQDCLR (UniProt P07949) | 0.173 | -0.0304 |
| RECQL_P46063_223+224_IAVDEVHCCSQWGHDFRPDYK (UniProt P46063) | 0.0483 | 0.0373 |
| RIF1_Q5UIP0_312_SLIDNFALNPDILCSAK (UniProt Q5UIP0) | 0.012 | 0.0491 |
| RGN_Q15493_218_LWVACYNGGR (UniProt Q15493) | 0.478 | 0.327 |
